Consider 73 compounds from PubChem BioAssay AID1656 (Sanford-Burnham Center for Chemical Genomics, 2009).

SMILES strings stand for the structures. “And” between values parts separate entries of the source, which are not always exact repeats. Equal values may be shown once. This is one part of the list. Some structures show a salt or complex split into parts, the way the source records it.

A short description of this experiment: oleate-induced lipid droplet accumulation in AML12 cells – imaging, high-throughput imaging, BODIPY stain, primary screen (AID 1656).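 Also: cells counted across two imaged fields per well.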 As to conditions: AML12 mouse hepatocytes, oleate lipid droplets, measured here: cell count, cytotoxicity flag, at 6.5 µM.
Compound `O=[As](O)(c1ccccc1)c1ccc(O)cc1` returned a cell count of 575 cells.
Under `Cc1cc(-c2cccc3ccccc23)c(C)cn1.O=[N+]([O-])c1cc([N+](=O)[O-])c(O)c([N+](=O)[O-])c1` stands 735 cells; under `O=[N+]([O-])c1cc([N+](=O)[O-])c(NCC2CCS(=O)(=O)C2)c([N+](=O)[O-])c1` (stereo not drawn), 624 cells; under `O=[N+]([O-])c1ccc(O)c(/C=N/Nc2ccc([N+](=O)[O-])cc2[N+](=O)[O-])c1`, 856 cells.
Under `O=[N+]([O-])c1ccc(OP2(=O)COCCO2)cc1` (stereo not drawn) stands 661 cells; under `CC(=O)NC(SC(=S)N(C)C)C(Cl)(Cl)Cl` (stereo not drawn), 744 cells.
Under `O=[N+]([O-])c1ncn(CCn2cnc([N+](=O)[O-])n2)n1` stands 707 cells.
`O=C(OC1CN2CCC1CC2)c1cccc(Cl)c1` (stereo not drawn) registered a cell count of 787 cells.
The result for `C(Cc1nn[nH]n1)Cc1nn[nH]n1` reads 657 cells; that for `Nc1ccc([As](=O)(O)c2ccc([N+](=O)[O-])cc2)cc1`, 733 cells.
For the compound `O=P(Nc1ccccn1)(c1ccc(Br)cc1)c1ccc(Br)cc1`, the cell count came out at 622 cells.
In turn, `CN(C)C1(CNC(=O)c2ccc(Cl)c(S(N)(=O)=O)c2)CCCCC1` returned a cell count of 860 cells.
Under `COc1ccc(NP(C)(=O)Oc2ccccc2OC)cc1` (stereo not drawn) stands 676 cells; under `CN(C)CCOC(=O)C(O)(c1ccccc1)C1CCCCC1` (stereo not drawn), 724 cells.
Consider `O=P(Nc1nc2ccccc2s1)(c1ccccc1)c1ccccc1`, for which the cell count amounted to 781 cells.
For the compound `C[C@H]1OP(=O)(Oc2ccccc2)[C@H](O)[C@H](O)[C@H]1N=[N+]=[N-]` (stereo partly drawn), the cell count turned out to be 666 cells.
In the case of `CP(=O)(Nc1ccc2c(c1)OCCO2)Oc1ccccc1` (stereo not drawn), the cell count was 753 cells.
`Cc1ccccc1NP(C)(=O)Nc1ccccc1C`: the cell count was 762 cells.
Under `CC(C)C(=O)NC(Sc1ccccc1)C(Cl)(Cl)Cl` (stereo not drawn) stands 627 cells.
`O=P(Nc1nccs1)(c1ccccc1)c1ccccc1` registered a cell count of 763 cells.
Under `CP(=O)(Nc1ccc(SC(F)(F)F)cc1)Oc1ccc(F)cc1` (stereo not drawn) stands 693 cells; under `c1nnnn1CCn1cnnn1`, 746 cells; under `CCOP(C)(=S)SCC(=O)NC(C)(CC)C(=O)O` (stereo not drawn), 676 cells.
Under `O=C(OCCN1CCN(CCOCc2ccccc2)CC1)C(O)(c1ccccc1)c1ccccc1` stands 621 cells; under `C[C@H]1OP(=O)(Oc2ccccc2)C[C@@H]2O[C@@H]21` (stereo partly drawn), 705 cells; under `C[C@@H]1C=CCP(=O)(Oc2ccccc2)O1` (stereo partly drawn), 641 cells.
The result for `O=C(OC1CN2CCC1CC2)c1ccc([N+](=O)[O-])cc1` (stereo not drawn) reads 726 cells; that for `CC(=O)Nc1ccc([As](=O)(O)O)c(O)c1`, 696 cells; that for `COc1ccc2c(c1O)-c1c(O)c(OC)cc3c1[C@H](C2)[N+](C)(C)CC3.O=[N+]([O-])c1cc([N+](=O)[O-])c([O-])c([N+](=O)[O-])c1[O-]`, 751 cells.
`CC(=O)Nc1ccc(Oc2c([N+](=O)[O-])cc([N+](=O)[O-])cc2[N+](=O)[O-])cc1` registered a cell count of 673 cells.
The result for `O=P1(Nc2nc3ccc(Cl)cc3s2)COc2ccccc2O1` (stereo not drawn) reads 704 cells; that for `CCOc1ccc(C2=NCC(CBr)S2)cc1` (stereo not drawn), 679 cells.
The result for `CC(C)(C)C(=O)NC(Sc1ccccc1)C(Cl)(Cl)Cl` (stereo not drawn) reads 695 cells; that for `CC(C)c1ccc(OP(C)(=O)Nc2ccc(SC(F)(F)F)cc2)cc1` (stereo not drawn), 339 cells; that for `CCN(CC)CCCOC(=O)C(O)(c1ccccc1)C1CCCCC1` (stereo not drawn), 567 cells.
Take `CC(=O)NC(SC(=S)N(CC(C)C)CC(C)C)C(Cl)(Cl)Cl` (stereo not drawn): the cell count stood at 728 cells.
The result for `Cc1ccc(OP(=O)(Nc2ccccn2)Oc2ccc(C)cc2)cc1` reads 663 cells.
Compound `Cc1ccccc1OP(=O)(Nc1ccccn1)Oc1ccccc1C` came in with a cell count of 697 cells.
`O=[N+]([O-])c1cc([N+](=O)[O-])c(OC2CCCCC2O)c([N+](=O)[O-])c1` (stereo not drawn): the cell count is 794 cells.
Under `O=c1c2cc([N+](=O)[O-])ccc2[nH]c2c([N+](=O)[O-])cc([N+](=O)[O-])cc12` stands 731 cells; under `CCCCCOc1ccc(NP(C)(=O)Oc2ccc(Cl)cc2Cl)cc1` (stereo not drawn), 684 cells; under `CN(C)C(=O)Oc1noc2ccccc12`, 684 cells.
Turning to `c1ccc(-c2nn[nH]n2)c(-c2nn[nH]n2)c1`, the cell count came out at 688 cells.
The result for `Cc1ccc(NP(=O)(Oc2cccc(C)c2)Oc2cccc(C)c2)nc1` reads 715 cells.
The result for `CCNC(=S)/N=C(\N)N[N+](=O)[O-]` reads 705 cells; that for `O=C(NC1CCS(=O)(=O)C1)NP(=S)(Oc1ccccc1)Oc1ccccc1` (stereo not drawn), 673 cells.
Under `COc1ccc(OP(C)(=O)Nc2ccc(SC(F)(F)F)cc2)cc1` (stereo not drawn) stands 691 cells.
For the compound `CCOC(=O)c1ccc(NP(C)(=O)Oc2ccc(F)cc2)cc1` (stereo not drawn), the cell count was 745 cells.
Under `O=[N+]([O-])c1cc([N+](=O)[O-])c(CCN2CCOCC2)c([N+](=O)[O-])c1` stands 841 cells; under `Nc1cccc2ccc([As](=O)(O)O)cc12`, 723 cells.
The compound `CP(=O)(Nc1ccc(Cl)cc1Cl)Oc1ccccc1` (stereo not drawn) yielded a cell count of 688 cells.
`CP(=O)(OCCOc1ccccc1)OCCOc1ccccc1` came in with a cell count of 679 cells.
With `CCN(N=Nc1nonc1N)c1nonc1N`, the cell count was found to be 654 cells.
The result for `O=P(Nc1nc2ccc(Cl)cc2s1)(c1ccccc1)c1ccccc1` reads 518 cells; that for `Cc1cc(C)cc(OP(C)(=O)Nc2cccc(C(F)(F)F)c2)c1` (stereo not drawn), 707 cells; that for `CC(=O)Nc1ccc([As](=O)(O)O)cc1`, 667 cells.
The compound `O=C(O)c1ccccc1[As](=O)(O)O` showed a cell count of 719 cells.
Under `COc1ccc(OP(C)(=O)Nc2ccccc2Br)cc1` (stereo not drawn) stands 594 cells; under `Cc1cc(SC(NC(=O)c2ccc(F)cc2)C(Cl)(Cl)Cl)ncn1` (stereo not drawn), 600 cells; under `CCOP(=O)(Nc1ccccc1)OCC`, 772 cells and 728 cells.
Under `Cc1ccc(NP(=O)(Oc2ccccc2F)Oc2ccccc2F)nc1` stands 678 cells; under `Oc1ccccc1CNc1ccccn1`, 800 cells; under `O=C(NC(Sc1ccncn1)C(Cl)(Cl)Cl)c1ccccc1` (stereo not drawn), 588 cells.
As to `Nc1cc(N)c2nonc2c1[N+](=O)[O-]`, the cell count worked out at 687 cells.
`O=[N+]([O-])c1cc([N+](=O)[O-])c(Nc2ccccn2)c([N+](=O)[O-])c1`: the cell count was 589 cells.
The result for `CP(=O)(Nc1ccccn1)Oc1ccccc1` (stereo not drawn) reads 544 cells; that for `COc1ccccc1OP(C)(=O)Nc1ccc(Br)cc1` (stereo not drawn), 725 cells; that for `Cc1ccc(N/C(=N/P(=O)(N2CCOCC2)N2CCOCC2)N2CCOCC2)cc1`, 704 cells.
The result for `NC(=O)c1cc([N+](=O)[O-])cc([N+](=O)[O-])c1N` reads 724 cells; that for `CN1CCCC(OC(=O)C(c2ccccc2)c2ccccc2)C1` (stereo not drawn), 707 cells.
Compound `Clc1ccc(Cl)c(NC2=NCC(CBr)S2)c1` (stereo not drawn) showed a cell count of 722 cells.
The result for `CN(C)CCOC(=O)C(O)(c1ccccc1)C1CCCC1` (stereo not drawn) reads 774 cells.
Consider `COc1ccccc1OP(=O)(Nc1ccc(C)cn1)Oc1ccccc1OC`, for which the cell count was found to be 717 cells.
